Assay results taken from paper PMC7948425.

By UniProt entry, the sequences of proteins in these tests, tags left out.
UniProt Q8N3U4: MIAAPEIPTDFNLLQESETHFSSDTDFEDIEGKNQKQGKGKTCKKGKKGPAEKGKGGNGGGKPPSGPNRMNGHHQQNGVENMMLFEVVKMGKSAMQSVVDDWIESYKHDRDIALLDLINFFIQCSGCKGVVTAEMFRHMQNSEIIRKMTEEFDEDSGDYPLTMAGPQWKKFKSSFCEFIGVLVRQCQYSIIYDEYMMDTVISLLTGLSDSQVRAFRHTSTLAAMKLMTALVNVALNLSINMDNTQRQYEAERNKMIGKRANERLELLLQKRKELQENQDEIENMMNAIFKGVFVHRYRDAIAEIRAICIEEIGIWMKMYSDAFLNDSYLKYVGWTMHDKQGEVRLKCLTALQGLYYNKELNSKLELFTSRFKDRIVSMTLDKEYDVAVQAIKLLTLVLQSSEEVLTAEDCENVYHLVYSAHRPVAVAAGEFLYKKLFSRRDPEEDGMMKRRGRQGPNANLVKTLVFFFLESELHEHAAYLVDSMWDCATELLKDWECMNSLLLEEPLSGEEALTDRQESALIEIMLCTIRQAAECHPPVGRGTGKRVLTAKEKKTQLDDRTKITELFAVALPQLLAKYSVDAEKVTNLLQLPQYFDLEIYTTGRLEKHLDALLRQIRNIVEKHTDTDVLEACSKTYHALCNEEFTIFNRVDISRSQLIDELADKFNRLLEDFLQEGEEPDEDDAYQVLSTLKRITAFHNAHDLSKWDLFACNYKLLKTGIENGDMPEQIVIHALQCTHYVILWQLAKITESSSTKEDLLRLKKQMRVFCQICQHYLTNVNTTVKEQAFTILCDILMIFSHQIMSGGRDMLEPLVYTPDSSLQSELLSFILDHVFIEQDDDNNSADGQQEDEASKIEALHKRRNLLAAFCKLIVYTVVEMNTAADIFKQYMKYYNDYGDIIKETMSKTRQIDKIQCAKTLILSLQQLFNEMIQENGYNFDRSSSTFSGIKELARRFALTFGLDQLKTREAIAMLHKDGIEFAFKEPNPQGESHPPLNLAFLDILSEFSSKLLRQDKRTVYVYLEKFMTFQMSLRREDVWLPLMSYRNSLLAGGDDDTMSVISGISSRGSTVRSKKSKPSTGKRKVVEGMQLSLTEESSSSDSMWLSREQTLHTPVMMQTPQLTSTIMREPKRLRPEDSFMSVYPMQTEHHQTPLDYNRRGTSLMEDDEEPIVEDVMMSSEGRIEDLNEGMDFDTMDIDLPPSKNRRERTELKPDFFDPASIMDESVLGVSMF
UniProt Q9UQE7: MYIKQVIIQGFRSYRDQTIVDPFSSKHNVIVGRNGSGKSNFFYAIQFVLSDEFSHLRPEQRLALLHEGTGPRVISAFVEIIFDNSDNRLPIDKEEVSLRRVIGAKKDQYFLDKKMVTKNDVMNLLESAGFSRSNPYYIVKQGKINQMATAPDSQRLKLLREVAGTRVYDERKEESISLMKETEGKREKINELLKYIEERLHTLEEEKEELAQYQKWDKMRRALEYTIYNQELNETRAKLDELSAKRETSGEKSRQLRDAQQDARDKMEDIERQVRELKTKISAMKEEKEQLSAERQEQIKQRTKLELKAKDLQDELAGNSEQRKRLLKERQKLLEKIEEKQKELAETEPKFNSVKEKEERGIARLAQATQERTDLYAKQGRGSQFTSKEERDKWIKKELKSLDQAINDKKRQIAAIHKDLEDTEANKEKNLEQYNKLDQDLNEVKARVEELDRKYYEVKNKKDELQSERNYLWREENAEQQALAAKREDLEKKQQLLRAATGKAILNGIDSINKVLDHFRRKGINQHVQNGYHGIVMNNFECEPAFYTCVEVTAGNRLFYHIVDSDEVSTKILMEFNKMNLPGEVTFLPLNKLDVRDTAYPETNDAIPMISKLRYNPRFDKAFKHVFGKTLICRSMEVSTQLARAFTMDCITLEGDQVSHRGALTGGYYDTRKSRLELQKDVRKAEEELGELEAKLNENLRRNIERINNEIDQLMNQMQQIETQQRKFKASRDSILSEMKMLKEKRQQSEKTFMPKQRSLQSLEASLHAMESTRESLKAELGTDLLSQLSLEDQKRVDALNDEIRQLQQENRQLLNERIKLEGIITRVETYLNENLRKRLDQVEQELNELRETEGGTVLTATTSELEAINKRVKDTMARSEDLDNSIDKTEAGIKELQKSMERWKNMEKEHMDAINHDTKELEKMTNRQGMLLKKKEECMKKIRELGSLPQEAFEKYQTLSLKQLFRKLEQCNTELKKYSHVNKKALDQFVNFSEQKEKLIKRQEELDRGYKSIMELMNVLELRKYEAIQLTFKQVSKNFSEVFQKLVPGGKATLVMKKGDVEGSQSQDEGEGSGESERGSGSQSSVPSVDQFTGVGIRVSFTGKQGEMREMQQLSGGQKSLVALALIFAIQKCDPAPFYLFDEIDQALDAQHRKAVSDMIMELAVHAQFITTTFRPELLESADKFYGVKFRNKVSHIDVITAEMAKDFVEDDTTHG

Tests used:
Assay in all cases: affinity purification with mass spectrometry; dual-affinity purification (FLAG, then streptavidin) of dual epitope-tagged endogenous cohesin subunits from HCT116 nuclear extracts, mass spectrometry; primary data in ref. 13
[1] = target: T1, PDS5A with FLAG/streptavidin binding peptide dual epitope tag, from the gene-edited endogenous allele (human (endogenous in HCT116)) (UniProt Q29RF7)
T1 sequence: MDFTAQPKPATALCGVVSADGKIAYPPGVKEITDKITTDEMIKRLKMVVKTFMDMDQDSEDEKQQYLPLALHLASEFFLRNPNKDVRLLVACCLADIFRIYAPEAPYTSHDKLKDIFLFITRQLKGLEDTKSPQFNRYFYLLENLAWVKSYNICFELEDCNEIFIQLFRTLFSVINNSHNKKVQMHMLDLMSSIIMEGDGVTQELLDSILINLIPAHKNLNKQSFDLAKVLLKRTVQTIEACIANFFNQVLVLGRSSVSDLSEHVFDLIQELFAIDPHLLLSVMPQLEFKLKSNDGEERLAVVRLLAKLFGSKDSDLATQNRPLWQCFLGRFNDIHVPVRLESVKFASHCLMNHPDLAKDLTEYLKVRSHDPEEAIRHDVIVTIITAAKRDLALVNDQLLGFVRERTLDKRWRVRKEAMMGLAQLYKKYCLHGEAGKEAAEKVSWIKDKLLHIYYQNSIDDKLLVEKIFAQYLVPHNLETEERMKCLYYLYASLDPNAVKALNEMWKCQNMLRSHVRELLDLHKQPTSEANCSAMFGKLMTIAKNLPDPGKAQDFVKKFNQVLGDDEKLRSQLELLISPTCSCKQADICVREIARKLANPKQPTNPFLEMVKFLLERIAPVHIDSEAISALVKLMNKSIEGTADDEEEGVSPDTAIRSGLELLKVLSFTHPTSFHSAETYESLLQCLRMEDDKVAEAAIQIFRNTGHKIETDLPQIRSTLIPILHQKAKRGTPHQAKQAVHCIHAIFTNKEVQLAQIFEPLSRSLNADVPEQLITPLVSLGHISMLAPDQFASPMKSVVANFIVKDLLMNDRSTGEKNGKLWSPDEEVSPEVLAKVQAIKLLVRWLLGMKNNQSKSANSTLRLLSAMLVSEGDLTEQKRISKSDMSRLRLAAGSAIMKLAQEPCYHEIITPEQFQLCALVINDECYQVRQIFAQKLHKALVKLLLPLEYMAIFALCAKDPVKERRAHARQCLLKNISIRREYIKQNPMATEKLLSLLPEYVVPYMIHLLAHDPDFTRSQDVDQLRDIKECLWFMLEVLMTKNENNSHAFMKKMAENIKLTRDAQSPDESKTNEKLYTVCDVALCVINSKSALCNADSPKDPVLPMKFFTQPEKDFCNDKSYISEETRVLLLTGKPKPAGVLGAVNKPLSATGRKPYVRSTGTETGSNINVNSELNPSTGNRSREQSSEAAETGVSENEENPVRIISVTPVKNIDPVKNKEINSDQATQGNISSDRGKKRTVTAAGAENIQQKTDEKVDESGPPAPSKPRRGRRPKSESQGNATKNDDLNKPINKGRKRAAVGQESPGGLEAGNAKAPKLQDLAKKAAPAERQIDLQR

[2] = target: STAG2 with FLAG/streptavidin binding peptide dual epitope tag, from the gene-edited endogenous allele (human (endogenous in HCT116)) (UniProt Q8N3U4)
[3] = target: SMC3 with FLAG/streptavidin binding peptide dual epitope tag, from the gene-edited endogenous allele (human (endogenous in HCT116)) (UniProt Q9UQE7)
[4] = target: T2, SMC1A with FLAG/streptavidin binding peptide dual epitope tag, from the gene-edited endogenous allele (human (endogenous in HCT116)) (UniProt Q14683)
T2 sequence: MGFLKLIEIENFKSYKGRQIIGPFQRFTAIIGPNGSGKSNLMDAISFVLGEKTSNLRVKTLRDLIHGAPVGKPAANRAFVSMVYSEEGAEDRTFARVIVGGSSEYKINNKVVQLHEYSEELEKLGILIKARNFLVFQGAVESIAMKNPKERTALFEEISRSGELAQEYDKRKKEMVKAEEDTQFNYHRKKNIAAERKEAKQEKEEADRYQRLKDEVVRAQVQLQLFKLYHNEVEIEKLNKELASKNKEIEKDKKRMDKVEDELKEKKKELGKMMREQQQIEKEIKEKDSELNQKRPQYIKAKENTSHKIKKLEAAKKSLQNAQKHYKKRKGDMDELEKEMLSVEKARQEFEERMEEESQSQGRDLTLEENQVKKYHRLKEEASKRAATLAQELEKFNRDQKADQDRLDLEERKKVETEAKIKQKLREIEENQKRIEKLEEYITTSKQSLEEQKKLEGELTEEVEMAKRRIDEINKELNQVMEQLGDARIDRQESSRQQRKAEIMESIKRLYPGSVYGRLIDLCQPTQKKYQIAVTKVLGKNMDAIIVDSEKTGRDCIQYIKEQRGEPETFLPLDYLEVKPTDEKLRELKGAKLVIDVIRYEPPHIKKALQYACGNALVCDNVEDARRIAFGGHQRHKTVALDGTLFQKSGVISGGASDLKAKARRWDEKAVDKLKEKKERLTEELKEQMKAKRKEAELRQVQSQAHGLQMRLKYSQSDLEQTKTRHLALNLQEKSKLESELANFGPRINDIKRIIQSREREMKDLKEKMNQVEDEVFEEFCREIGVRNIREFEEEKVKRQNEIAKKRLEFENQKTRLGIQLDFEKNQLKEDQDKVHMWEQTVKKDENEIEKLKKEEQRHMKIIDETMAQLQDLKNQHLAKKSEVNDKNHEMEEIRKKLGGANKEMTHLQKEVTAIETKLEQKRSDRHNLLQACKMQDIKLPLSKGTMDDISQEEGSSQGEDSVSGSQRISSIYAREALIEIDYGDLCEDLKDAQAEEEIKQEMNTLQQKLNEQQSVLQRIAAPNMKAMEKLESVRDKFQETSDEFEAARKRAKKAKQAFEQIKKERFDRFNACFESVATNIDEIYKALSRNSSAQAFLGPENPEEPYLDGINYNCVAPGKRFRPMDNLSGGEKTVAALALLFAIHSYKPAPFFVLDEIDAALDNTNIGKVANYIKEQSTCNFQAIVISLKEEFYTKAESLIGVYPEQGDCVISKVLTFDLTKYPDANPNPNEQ

binding [1]: binds
binding [2]: binds
binding [3]: binds
binding [4]: binds
B1: Ubiquitin-Specific Protease 13 (USP13), endogenous (enzyme, UniProt Q92995 1-863)
chain: MQRRGALFGMPGGSGGRKMAAGDIGELLVPHMPTIRVPRSGDRVYKNECAFSYDSPNSEGGLYVCMNTFLAFGREHVERHFRKTGQSVYMHLKRHVREKVRGASGGALPKRRNSKIFLDLDTDDDLNSDDYEYEDEAKLVIFPDHYEIALPNIEELPALVTIACDAVLSSKSPYRKQDPDTWENELPVSKYANNLTQLDNGVRIPPSGWKCARCDLRENLWLNLTDGSVLCGKWFFDSSGGNGHALEHYRDMGYPLAVKLGTITPDGADVYSFQEEEPVLDPHLAKHLAHFGIDMLHMHGTENGLQDNDIKLRVSEWEVIQESGTKLKPMYGPGYTGLKNLGNSCYLSSVMQAIFSIPEFQRAYVGNLPRIFDYSPLDPTQDFNTQMTKLGHGLLSGQYSKPPVKSELIEQVMKEEHKPQQNGISPRMFKAFVSKSHPEFSSNRQQDAQEFFLHLVNLVERNRIGSENPSDVFRFLVEERIQCCQTRKVRYTERVDYLMQLPVAMEAATNKDELIAYELTRREAEANRRPLPELVRAKIPFSACLQAFSEPENVDDFWSSALQAKSAGVKTSRFASFPEYLVVQIKKFTFGLDWVPKKFDVSIDMPDLLDINHLRARGLQPGEEELPDISPPIVIPDDSKDRLMNQLIDPSDIDESSVMQLAEMGFPLEACRKAVYFTGNMGAEVAFNWIIVHMEEPDFAEPLTMPGYGGAASAGASVFGASGLDNQPPEEIVAIITSMGFQRNQAIQALRATNNNLERALDWIFSHPEFEEDSDFVIEMENNANANIISEAKPEGPRVKDGSGTYELFAFISHMGTSTMSGHYICHIKKEGRWVIYNDHKVCASERPPKDLGYMYFYRRIPS

Results are given in words; binding and its absence hold for the method and conditions named. In cells and extracts the contact can be indirect. A yes stands for co-enrichment or nearness to the bait. Other partners may have been found. For some of these results: Where a sequence is shown, tags or fusion partners need not be part of it.
